Assay results taken from US20240327509A1, “HUMAN CXCLI6 ANTIBODIES AND THE USE THEREOF” (CELLUS,INC., priority 2021, published 2024).
Where a chain is given by its changes, count along the chain named. These are yes or no findings as the source states them, for the method shown. Some entries that bind do so weakly or less than the wild type.

Key:
[1] = target: T1, Recombinant human CXCL16 (rhCXCL16) protein (human) (UniProt Q9H2A7); assay: note to Table 6 (BLI, ForteBio)
T1 sequence: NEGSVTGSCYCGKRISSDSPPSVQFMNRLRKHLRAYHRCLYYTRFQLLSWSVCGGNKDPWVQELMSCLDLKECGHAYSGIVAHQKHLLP

[2] = target: T1, Recombinant human CXCL16 (rhCXCL16) protein (human); assay: ELISA, recombinant human CXCL16 immobilized on the plate, HRP-labeled anti-human IgG detection, OD 450 nm
[3] = target: T1, Recombinant human CXCL16 (rhCXCL16) protein (human); assay: ELISA, recombinant human CXCL16 immobilized on plate, antibody 0.001~10 nM
[4] = target: T1, Recombinant human CXCL16 (rhCXCL16) protein (human); assay: bio-light interferometry assay; refers to Table 6 and Example 1
[5] = target: T1, Recombinant human CXCL16 (rhCXCL16) protein (human); assay: bio-light interferometry (ForteBio)
[6] = target: T1, Recombinant human CXCL16 (rhCXCL16) protein (human); assay: bio-light interferometry (ForteBio); refers to Table 6 and Example 1
[7] = target: T1, Recombinant human CXCL16 (rhCXCL16) protein (human); assay: bio-light interferometry assay

Measured: binding

B1: Chimeric antibody HC0LC0 (antibody, V domains shown)
VH: AVQLVESGGGLVQPKESLKISCAASGFTFSNAVMNWVRQAPGKGLEWVARIRTKPNNYATFYADSVKGRFTFSRDDSKSMVYLQMDNLKTEDTAMYYCTAWTTEGIYWGQGTLVTVSS
VL: DIVMTQSPSSLAVSAGETVTINCKSSQSLLYSGNQKNYLAWYQQKPGQSPKLLIYWASTRQSGVPDRFIGSGSGTDFTLTISSVQAEDLAIYYCQQYYDTPWTFGGGTKLELKR
notes: also called CLS-A1HC0LC0; variant antibody
binds: [1] | [2]

B2: HC5LC1 (antibody, human IgG1, kappa, V domains shown)
VH: B1 VH with A1E, K15G, E16G, I20L, P41S, S79N, M80T, V81A, D86N, N87S
VL: B1 VL with S9D, I69S, L89V, I91V, L110V, L112I
notes: Humanized; human IgG1 / kappa constant domains; also called HCSLC1; humanized CXCL16 antibody HC5LC1
not listed: [1]
binds: all other assays above

B3: HC5LC5 (antibody, human IgG1, kappa, V domains shown)
VH: B1 VH with A1E, K15G, E16G, I20L, P41S, S79N, M80T, V81A, D86N, N87S
VL: B1 VL with T18R, V19A, V84L, L89V
notes: Humanized; human IgG1 / kappa constant domains; also called HCSLCS; humanized CXCL16 antibody HC5LC5
not listed: [1]
binds: all other assays above

B4: HC5LC2 (antibody, human IgG1, kappa, V domains shown)
VH: B1 VH with A1E, K15G, E16G, I20L, P41S, S79N, M80T, V81A, D86N, N87S
VL: B1 VL with A15L, V19A, S49P, I69T, S73A, L110V, L112I
notes: Humanized; human IgG1 / kappa constant domains; also called HCSLC2; humanized CXCL16 antibody HC5LC2
not listed: [1]
binds: all other assays above

B5: HC5LC3 (antibody, human IgG1, kappa, V domains shown)
VH: B1 VH with A1E, K15G, E16G, I20L, P41S, S79N, M80T, V81A, D86N, N87S
VL: DIQMTQSPSSLSASVGDRVTITCKSSQSLLYSGNQKNYLAWYQQKPGQSPKLLIYWASTRQSGVPDRFSGSGSGTDFTLTISSLQAEDFATYYCQQYYDTPWTFGGGTKVEIKR
notes: Humanized; human IgG1 / kappa constant domains; also called HCSLC3; humanized CXCL16 antibody HC5LC3
not listed: [1] | [2]
binds: all other assays above

B6: HC4LC1 (antibody, human IgG1, kappa, V domains shown)
VH: EVQLVESGGGLVKPGGSLRLSCAASGFTFSNAVMNWVRQAPGKGLEWVARIRTKPNNYATFYADSVKGRFTFSRDDSKNTLYLQMNSLKTEDTAVYYCTAWTTEGIYWGQGTTVTVSS
VL: B1 VL with S9D, I69S, L89V, I91V, L110V, L112I
notes: Humanized; human IgG1 / kappa constant domains; also called humanized CXCL16 antibody HC4LC1
not listed: [1]
binds: all other assays above
